In assay [1] the target is OX40 (human (endogenous in HUVEC)) (UniProt P43489). The assay can be described thus: co-IP; HUVECs treated with vehicle for 48 hours; lysates immunoprecipitated with an anti-OX40 antibody, blotted.
For assay [2] the target is unchanged. The assay can be described thus: co-IP; HUVECs treated with human OX40L protein (100 ng/mL) for 48 hours; lysates immunoprecipitated with an anti-OX40 antibody, blotted.

Amino acid sequences for entries named in this document (tags omitted). Residues count along the entry.
UniProt P43489, residues 29-277: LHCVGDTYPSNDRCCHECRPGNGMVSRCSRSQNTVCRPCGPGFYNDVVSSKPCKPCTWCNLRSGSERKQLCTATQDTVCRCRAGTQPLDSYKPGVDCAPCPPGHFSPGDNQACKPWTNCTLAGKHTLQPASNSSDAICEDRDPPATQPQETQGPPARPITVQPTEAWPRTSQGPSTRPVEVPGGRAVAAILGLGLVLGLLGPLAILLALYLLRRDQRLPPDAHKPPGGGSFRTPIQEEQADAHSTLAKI

Results are given in words; binding and its absence hold for the method and conditions named. Binding seen in cells or lysates may run through a third protein. Some entries that bind do so weakly or less than the wild type.

B1: Spns lysolipid transporter 2 (Spns2) (protein, UniProt Q8IVW8 1-549)
chain: MMCLECASAAAGGAEEEEADAERRRRRRGAQRGAGGSGCCGARGAGGAGVSAAGDEVQTLSGSVRRAPTGPPGTPGTPGCAATAKGPGAQQPKPASLGRGRGAAAAILSLGNVLNYLDRYTVAGVLLDIQQHFGVKDRGAGLLQSVFICSFMVAAPIFGYLGDRFNRKVILSCGIFFWSAVTFSSSFIPQQYFWLLVLSRGLVGIGEASYSTIAPTIIGDLFTKNTRTLMLSVFYFAIPLGSGLGYITGSSVKQAAGDWHWALRVSPVLGMITGTLILILVPATKRGHADQLGDQLKARTSWLRDMKALIRNRSYVFSSLATSAVSFATGALGMWIPLYLHRAQVVQKTAETCNSPPCGAKDSLIFGAITCFTGFLGVVTGAGATRWCRLKTQRADPLVCAVGMLGSAIFICLIFVAAKSSIVGAYICIFVGETLLFSNWAITADILMYVVIPTRRATAVALQSFTSHLLGDAGSPYLIGFISDLIRQSTKDSPLWEFLSLGYALMLCPFVVVLGGMFFLATALFFVSDRARAEQQVNQLAMPPASVKV
Regarding B1, the binding entry was “binds weakly” in assay [1] and “binds” in assay [2].

(Values after PMC11870743, “Endothelial OX40 activation facilitates tumor cell escape from T cell surveillance through S1P/YAP-mediated angiogenesis” (The Journal of Clinical Investigation, 2025).)
